We go through three sequences from article PMC11696086.

For this data set, the system named is His-OBP3 (Arabidopsis thaliana). Briefly: EMSA. As to conditions: EMSA: 1 ug poly(dI:dC), 0.5 ug protein, 10 fmol biotin-dsDNA, room temperature 20 min, run in 0.5x TBE pH 8.3; binding buffer not stated; recombinant protein; protein details: His; label: biotin. For orientation: Mobility shift assays separate free from complexed probe on a gel.

Construct, isoform or probe ends are uncertain for at least one entry.

In the case of “GCTATTTTGATTTGTTATAATTCAAG (double strand) [bHLH100-g]”, the binding result is listed as “binds”.

For the sequence “ACCATGAGAATTAGATAACAATTAATCA (double strand) [bHLH101-k]”, the binding result is “binds”.

In the case of “TAGAAAAGTTAATAACAAAGCAAATAA (double strand) [bHLH038-c]”, the binding result is recorded as “binds”.
